According to patent US10577317B2, “Crystal forms and production methods thereof” (Sunovion Pharmaceuticals Inc., priority 2017, dated 2020):
Further values from the same series stand in other lists.

Assay: DVS water sorption isotherm, 25° C. scanned over 0 to 95% relative humidity (hygroscopicity)
Assay type: physicochemical
Conditions: FIG. 3F
From the text: In various embodiments, the hygroscopicity of crystal forms of racemic amisulpride, enantiomeric amisulpride, and enantiomeric amisulpride solvates are characterized by dynamic vapor sorption (DVS). DVS is a gravimetric technique that measures how much of a solvent is absorbed by a sample by varying the vapor concentration surrounding the sample (e.g., relative humidity) and measuring the change in mass. In the present application, DVS is used to generate water sorption isotherms, which represent the equilibrium amount of vapor sorbed as a function of steady state relative vapor pressure at a constant temperature.

## CCN1CCC[C@H]1CNC(=O)c1cc(S(=O)(=O)CC)c(N)cc1OC [(S)-amisulpride Form A′, S-4-Amino-N-[(1-ethyl-2-pyrrolidinyl)methyl]-5-(ethylsulfonyl)-2-methoxybenzamide]
RH 1.31 %, elapse time 104.3 min
  Change Mass: 0.000 wt %
RH 5.02 %, elapse time 292.6 min
  Change Mass: 0.018 wt %
RH 5.07 %, elapse time 625.8 min
  Change Mass: 0.028 wt %
RH 5.10 %, elapse time 966.5 min
  Change Mass: 0.022 wt %
RH 9.91 %, elapse time 633.8 min
  Change Mass: 0.031 wt %
RH 10.09 %, elapse time 617.8 min
  Change Mass: 0.034 wt %
RH 10.14 %, elapse time 301.1 min
  Change Mass: 0.023 wt %
RH 10.15 %, elapse time 958.5 min
  Change Mass: 0.026 wt %
RH 14.86 %, elapse time 641.9 min
  Change Mass: 0.036 wt %
RH 15.11 %, elapse time 950.5 min
  Change Mass: 0.029 wt %
RH 15.12 %, elapse time 609.8 min
  Change Mass: 0.040 wt %
RH 15.17 %, elapse time 309.1 min
  Change Mass: 0.029 wt %
RH 19.87 %, elapse time 649.9 min
  Change Mass: 0.041 wt %
RH 20.09 %, elapse time 942.5 min
  Change Mass: 0.035 wt %
RH 20.12 %, elapse time 601.8 min
  Change Mass: 0.046 wt %
RH 24.86 %, elapse time 658.9 min
  Change Mass: 0.047 wt %
RH 24.90 %, elapse time 593.8 min
  Change Mass: 0.053 wt %
RH 24.92 %, elapse time 934.5 min
  Change Mass: 0.042 wt %
RH 29.81 %, elapse time 335.2 min
  Change Mass: 0.049 wt %
RH 29.83 %, elapse time 667.9 min
  Change Mass: 0.053 wt %
RH 30.11 %, elapse time 586.3 min
  Change Mass: 0.060 wt %
RH 30.15 %, elapse time 927.0 min
  Change Mass: 0.047 wt %
RH 34.85 %, elapse time 676.9 min
  Change Mass: 0.059 wt %
RH 34.89 %, elapse time 577.8 min
  Change Mass: 0.066 wt %
RH 34.95 %, elapse time 344.2 min
  Change Mass: 0.055 wt %
RH 34.97 %, elapse time 918.5 min
  Change Mass: 0.052 wt %
RH 39.80 %, elapse time 685.9 min
  Change Mass: 0.065 wt %
RH 39.84 %, elapse time 567.8 min
  Change Mass: 0.073 wt %
RH 39.84 %, elapse time 908.5 min
  Change Mass: 0.059 wt %
RH 40.00 %, elapse time 353.2 min
  Change Mass: 0.061 wt %
RH 44.81 %, elapse time 362.2 min
  Change Mass: 0.068 wt %
RH 45.01 %, elapse time 558.3 min
  Change Mass: 0.080 wt %
RH 45.01 %, elapse time 696.9 min
  Change Mass: 0.071 wt %
RH 45.07 %, elapse time 899.0 min
  Change Mass: 0.065 wt %
RH 49.95 %, elapse time 373.2 min
  Change Mass: 0.074 wt %
RH 49.96 %, elapse time 707.9 min
  Change Mass: 0.078 wt %
RH 50.08 %, elapse time 888.0 min
  Change Mass: 0.072 wt %
RH 50.14 %, elapse time 547.3 min
  Change Mass: 0.087 wt %
RH 54.92 %, elapse time 718.9 min
  Change Mass: 0.084 wt %
RH 54.94 %, elapse time 382.2 min
  Change Mass: 0.081 wt %
RH 55.07 %, elapse time 538.3 min
  Change Mass: 0.094 wt %
RH 55.07 %, elapse time 877.0 min
  Change Mass: 0.078 wt %
RH 59.85 %, elapse time 729.9 min
  Change Mass: 0.091 wt %
RH 59.92 %, elapse time 393.2 min
  Change Mass: 0.089 wt %
RH 60.09 %, elapse time 527.3 min
  Change Mass: 0.101 wt %
RH 60.09 %, elapse time 866.0 min
  Change Mass: 0.085 wt %
RH 64.90 %, elapse time 740.9 min
  Change Mass: 0.098 wt %
RH 64.98 %, elapse time 404.2 min
  Change Mass: 0.097 wt %
RH 65.10 %, elapse time 516.3 min
  Change Mass: 0.108 wt %
RH 65.18 %, elapse time 855.0 min
  Change Mass: 0.093 wt %
RH 69.85 %, elapse time 751.9 min
  Change Mass: 0.105 wt %
RH 69.97 %, elapse time 413.2 min
  Change Mass: 0.105 wt %
RH 70.13 %, elapse time 505.3 min
  Change Mass: 0.115 wt %
RH 70.15 %, elapse time 844.0 min
  Change Mass: 0.101 wt %
RH 74.64 %, elapse time 760.9 min
  Change Mass: 0.111 wt %
RH 74.69 %, elapse time 422.2 min
  Change Mass: 0.114 wt %
RH 75.16 %, elapse time 833.0 min
  Change Mass: 0.109 wt %
RH 75.42 %, elapse time 494.3 min
  Change Mass: 0.123 wt %
RH 79.56 %, elapse time 769.9 min
  Change Mass: 0.119 wt %
RH 79.58 %, elapse time 431.2 min
  Change Mass: 0.124 wt %
RH 80.40 %, elapse time 485.3 min
  Change Mass: 0.134 wt %
RH 80.44 %, elapse time 824.0 min
  Change Mass: 0.121 wt %
RH 84.53 %, elapse time 440.2 min
  Change Mass: 0.137 wt %
RH 84.91 %, elapse time 778.9 min
  Change Mass: 0.131 wt %
RH 85.35 %, elapse time 476.3 min
  Change Mass: 0.151 wt %
RH 85.40 %, elapse time 815.0 min
  Change Mass: 0.139 wt %
RH 89.53 %, elapse time 787.9 min
  Change Mass: 0.143 wt %
RH 89.83 %, elapse time 449.2 min
  Change Mass: 0.151 wt %
RH 90.05 %, elapse time 467.3 min
  Change Mass: 0.160 wt %
RH 90.15 %, elapse time 806.0 min
  Change Mass: 0.149 wt %
RH 94.52 %, elapse time 458.3 min
  Change Mass: 0.170 wt %
RH 94.71 %, elapse time 797.0 min
  Change Mass: 0.159 wt %
